Assay results from the supplement of paper PMC10077471.
Over roughly 1,900 compounds, “excess over highest single agent (ExcessHSA) synergy score, 6x6 matrix” has its median near -83; the lowest 2% begin near -370. Some of the results follow.

system: NCI-H446; test: excess over highest single agent (ExcessHSA) synergy score, 6x6 matrix; higher = less synergy (more negative = stronger synergy); conditions: 72 h; CellTiter-Glo viability

SMILES	excess over highest single agent
CC(=O)NC[C@H]1CN(c2ccc(N3CCOCC3)c(F)c2)C(=O)O1 + Cc1sc2c(c1C)C(c1ccc(Cl)cc1)=N[C@@H](CC(=O)OC(C)(C)C)c1nnc(C)n1-2 [NCGC00250412-19]	21.9
Cc1nccn1CC1CCc2c(c3ccccc3n2C)C1=O (stereo unspecified) + Cc1sc2c(c1C)C(c1ccc(Cl)cc1)=N[C@@H](CC(=O)OC(C)(C)C)c1nnc(C)n1-2 [NCGC00250412-19]	-25.4
COc1ccc2c(c1)c(CC(=O)OCC(=O)O)c(C)n2C(=O)c1ccc(Cl)cc1 + Cc1sc2c(c1C)C(c1ccc(Cl)cc1)=N[C@@H](CC(=O)OC(C)(C)C)c1nnc(C)n1-2 [NCGC00250412-19]	-251
Cc1c2oc3c(C)ccc(C(=O)N[C@@H]4C(=O)N[C@H](C(C)C)C(=O)N5CCC[C@H]5C(=O)N(C)CC(=O)N(C)[C@@H](C(C)C)C(=O)O[C@@H]4C)c3nc-2c(C(=O)N[C@@H]2C(=O)N[C@H](C(C)C)C(=O)N3CCC[C@H]3C(=O)N(C)CC(=O)N(C)[C@@H](C(C)C)C(=O)O[C@@H]2C)c(N)c1=O + Cc1sc2c(c1C)C(c1ccc(Cl)cc1)=N[C@@H](CC(=O)OC(C)(C)C)c1nnc(C)n1-2 [NCGC00250412-19]	-247
CC1(C)OC2=C(C(=O)c3ccccc3C2=O)[C@H](NCc2ccccc2)[C@H]1O + Cc1sc2c(c1C)C(c1ccc(Cl)cc1)=N[C@@H](CC(=O)OC(C)(C)C)c1nnc(C)n1-2 [NCGC00250412-19]	-299
Nc1ncnc2c1ncn2[C@@H]1O[C@H](CO)C[C@H]1O + Cc1sc2c(c1C)C(c1ccc(Cl)cc1)=N[C@@H](CC(=O)OC(C)(C)C)c1nnc(C)n1-2 [NCGC00250412-19]	-100
COc1cc2c(cc1Cc1cccc(Cl)c1F)c(=O)c(C(=O)O)cn2[C@H](CO)C(C)C + Cc1sc2c(c1C)C(c1ccc(Cl)cc1)=N[C@@H](CC(=O)OC(C)(C)C)c1nnc(C)n1-2 [NCGC00250412-19]	-36.4
COc1ccc2cc3[n+](cc2c1OC)CCc1cc2c(cc1-3)OCO2 + Cc1sc2c(c1C)C(c1ccc(Cl)cc1)=N[C@@H](CC(=O)OC(C)(C)C)c1nnc(C)n1-2 [NCGC00250412-19]	113
Cc1cc(OCCCc2c(C(=O)O)n(Cc3cccnc3)c3c(-c4c(COc5ccc(N6CCN([S+](C)(=O)[O-])CC6)cc5)nn(C)c4C)cccc23)cc(C)c1Cl + Cc1sc2c(c1C)C(c1ccc(Cl)cc1)=N[C@@H](CC(=O)OC(C)(C)C)c1nnc(C)n1-2 [NCGC00250412-19]	-31.2
COc1cc(C(C)C)c2c(c1)S(=O)(=O)N(COc1cc(=O)n3cccc(OCCN4CCCCC4)c3n1)C2=O + Cc1sc2c(c1C)C(c1ccc(Cl)cc1)=N[C@@H](CC(=O)OC(C)(C)C)c1nnc(C)n1-2 [NCGC00250412-19]	-90.3
Nc1ccccc1NC(=O)c1ccc(CNc2nccc(-c3cccnc3)n2)cc1 + Cc1sc2c(c1C)C(c1ccc(Cl)cc1)=N[C@@H](CC(=O)OC(C)(C)C)c1nnc(C)n1-2 [NCGC00250412-19]	-367
CC(C)(C)OC(=O)Nc1ccc(-c2cc(C(=O)NCCCCCCC(=O)NO)no2)cc1 + Cc1sc2c(c1C)C(c1ccc(Cl)cc1)=N[C@@H](CC(=O)OC(C)(C)C)c1nnc(C)n1-2 [NCGC00250412-19]	-161
CN1CC(=O)N=C1NC(=O)Nc1cccc(Cl)c1 + Cc1sc2c(c1C)C(c1ccc(Cl)cc1)=N[C@@H](CC(=O)OC(C)(C)C)c1nnc(C)n1-2 [NCGC00250412-19]	-53.3
Clc1cccc(-n2nnnc2NCc2ccccc2Oc2ccccn2)c1Cl + Cc1sc2c(c1C)C(c1ccc(Cl)cc1)=N[C@@H](CC(=O)OC(C)(C)C)c1nnc(C)n1-2 [NCGC00250412-19]	-103
CC1=C(C(=O)O)N2C(=O)[C@@H](NC(=O)[C@H](N)c3ccccc3)[C@H]2SC1 + Cc1sc2c(c1C)C(c1ccc(Cl)cc1)=N[C@@H](CC(=O)OC(C)(C)C)c1nnc(C)n1-2 [NCGC00250412-19]	-51.4
CC[C@H](C)C(=O)O[C@H]1C[C@H](O)C=C2C=C[C@H](C)[C@H](CC[C@@H](O)C[C@@H](O)CC(=O)O)[C@H]21 + Cc1sc2c(c1C)C(c1ccc(Cl)cc1)=N[C@@H](CC(=O)OC(C)(C)C)c1nnc(C)n1-2 [NCGC00250412-19]	-73.4
NCC1(CC(=O)O)CCCCC1 + Cc1sc2c(c1C)C(c1ccc(Cl)cc1)=N[C@@H](CC(=O)OC(C)(C)C)c1nnc(C)n1-2 [NCGC00250412-19]	-93.6
O=c1cccc2n1C[C@@H]1CNC[C@H]2C1 + Cc1sc2c(c1C)C(c1ccc(Cl)cc1)=N[C@@H](CC(=O)OC(C)(C)C)c1nnc(C)n1-2 [NCGC00250412-19]	44.7

SMILES	excess over highest single agent
CCOC(=O)N[C@@H]1CC[C@@H]2[C@@H](C1)C[C@H]1C(=O)O[C@H](C)[C@H]1[C@H]2/C=C/c1ccc(-c2cccc(F)c2)cn1 + Cc1sc2c(c1C)C(c1ccc(Cl)cc1)=N[C@@H](CC(=O)OC(C)(C)C)c1nnc(C)n1-2 [NCGC00250412-19]	-16.7
Cc1cc(Nc2cc(CN3CCOCC3)c3nc(C)c(Cc4ccc(Cl)cc4F)n3n2)n[nH]1 + Cc1sc2c(c1C)C(c1ccc(Cl)cc1)=N[C@@H](CC(=O)OC(C)(C)C)c1nnc(C)n1-2 [NCGC00250412-19]	-96.4
Nc1nnc(-c2cccc(Cl)c2Cl)c(N)n1 + Cc1sc2c(c1C)C(c1ccc(Cl)cc1)=N[C@@H](CC(=O)OC(C)(C)C)c1nnc(C)n1-2 [NCGC00250412-19]	55.7
CC[C@@]1(O)C(=O)OCc2c1cc1n(c2=O)Cc2cc3c(CN(C)C)c(O)ccc3nc2-1 + Cc1sc2c(c1C)C(c1ccc(Cl)cc1)=N[C@@H](CC(=O)OC(C)(C)C)c1nnc(C)n1-2 [NCGC00250412-19]	-475
C[C@@]12OC(=O)[C@]1([C@@H](O)[C@@H]1C=CCCC1)NC(=O)[C@@H]2CCCl + Cc1sc2c(c1C)C(c1ccc(Cl)cc1)=N[C@@H](CC(=O)OC(C)(C)C)c1nnc(C)n1-2 [NCGC00250412-19]	-247
Oc1cc(O)cc(/C=C/c2ccc(O)c(O)c2)c1 + Cc1sc2c(c1C)C(c1ccc(Cl)cc1)=N[C@@H](CC(=O)OC(C)(C)C)c1nnc(C)n1-2 [NCGC00250412-19]	-193
Nc1nc(=O)[nH]cc1F + Cc1sc2c(c1C)C(c1ccc(Cl)cc1)=N[C@@H](CC(=O)OC(C)(C)C)c1nnc(C)n1-2 [NCGC00250412-19]	45.8
CCN1CCN(c2ccc(Nc3cc(N(C)C(=O)Nc4c(Cl)c(OC)cc(OC)c4Cl)ncn3)cc2)CC1 + Cc1sc2c(c1C)C(c1ccc(Cl)cc1)=N[C@@H](CC(=O)OC(C)(C)C)c1nnc(C)n1-2 [NCGC00250412-19]	-296
NC(=O)c1cnc(-c2ccc(C3(N)CCC3)cc2)c(-c2ccccc2)c1 + Cc1sc2c(c1C)C(c1ccc(Cl)cc1)=N[C@@H](CC(=O)OC(C)(C)C)c1nnc(C)n1-2 [NCGC00250412-19]	-53.9
CC(=O)O[C@]1(C(C)=O)CC[C@H]2[C@@H]3C=C(C)C4=CC(=O)CC[C@]4(C)[C@H]3CC[C@@]21C + Cc1sc2c(c1C)C(c1ccc(Cl)cc1)=N[C@@H](CC(=O)OC(C)(C)C)c1nnc(C)n1-2 [NCGC00250412-19]	6.7
C=C1[C@H](CO)[C@@H](O)C[C@@H]1n1cnc2c(=O)[nH]c(N)nc21 + Cc1sc2c(c1C)C(c1ccc(Cl)cc1)=N[C@@H](CC(=O)OC(C)(C)C)c1nnc(C)n1-2 [NCGC00250412-19]	-70
COc1ccnc2[nH]cc(C(=O)C(=O)N3CCN(C(=O)c4ccccc4)C[C@H]3C)c12 + Cc1sc2c(c1C)C(c1ccc(Cl)cc1)=N[C@@H](CC(=O)OC(C)(C)C)c1nnc(C)n1-2 [NCGC00250412-19]	58.1
CO/N=C(\C(=O)N[C@@H]1C(=O)N2C(C(=O)O)=C(CSC(=O)c3ccco3)CS[C@H]12)c1csc(N)n1 + Cc1sc2c(c1C)C(c1ccc(Cl)cc1)=N[C@@H](CC(=O)OC(C)(C)C)c1nnc(C)n1-2 [NCGC00250412-19]	-112
C[C@H](CCC(=O)O)[C@H]1CC[C@H]2[C@@H]3C[C@H](O)[C@@H]4C[C@H](O)CC[C@]4(C)[C@H]3CC[C@]12C + Cc1sc2c(c1C)C(c1ccc(Cl)cc1)=N[C@@H](CC(=O)OC(C)(C)C)c1nnc(C)n1-2 [NCGC00250412-19]	-123
NC(=O)Nc1sc(-c2ccc(F)cc2)cc1C(N)=O + Cc1sc2c(c1C)C(c1ccc(Cl)cc1)=N[C@@H](CC(=O)OC(C)(C)C)c1nnc(C)n1-2 [NCGC00250412-19]	-176
CCN1CCN(C(=O)Cc2ccc(Nc3ncc(F)c(Nc4ccc(C(=O)Nc5ccccc5Cl)cc4)n3)cc2)CC1 + Cc1sc2c(c1C)C(c1ccc(Cl)cc1)=N[C@@H](CC(=O)OC(C)(C)C)c1nnc(C)n1-2 [NCGC00250412-19]	-388
CC(C)(C)OC(=O)N[C@H]1CCCCC/C=C\[C@@H]2C[C@@]2(C(=O)NS(=O)(=O)C2CC2)NC(=O)[C@@H]2C[C@@H](OC(=O)N3Cc4cccc(F)c4C3)CN2C1=O + Cc1sc2c(c1C)C(c1ccc(Cl)cc1)=N[C@@H](CC(=O)OC(C)(C)C)c1nnc(C)n1-2 [NCGC00250412-19]	-43.8
CC1(C)C(=O)N(CCN2CCC(C(=O)c3ccc(F)cc3)CC2)c2ccccc21 + Cc1sc2c(c1C)C(c1ccc(Cl)cc1)=N[C@@H](CC(=O)OC(C)(C)C)c1nnc(C)n1-2 [NCGC00250412-19]	-96.3

An excerpt taken from the entries so far:
SMILES	excess over highest single agent
CC1=C(C(=O)O)N2C(=O)[C@@H](NC(=O)[C@H](N)c3ccccc3)[C@H]2SC1 + Cc1sc2c(c1C)C(c1ccc(Cl)cc1)=N[C@@H](CC(=O)OC(C)(C)C)c1nnc(C)n1-2 [NCGC00250412-19]	-51.4
CC[C@H](C)C(=O)O[C@H]1C[C@H](O)C=C2C=C[C@H](C)[C@H](CC[C@@H](O)C[C@@H](O)CC(=O)O)[C@H]21 + Cc1sc2c(c1C)C(c1ccc(Cl)cc1)=N[C@@H](CC(=O)OC(C)(C)C)c1nnc(C)n1-2 [NCGC00250412-19]	-73.4
